PubChem BioAssay AID1259254 | NCATS – 2017

- Aim: 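Genome-wide screen for genes that prevent DNA re-replication in cancer cells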 (primary screen)
- Cell system: human HCT116 colorectal cancer cells
- Knock-down reagent: single siRNA against human genes
- Time to read-out: 3 days
- Read-out: 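Imaged Hoechst DNA stain sorts each cell into a cycle phase by DNA amount; per plate, G2 fraction set to 0% for non-targeting and 100% for GMNN siRNA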
- Scale: G2 robust z-score and G2 cells, % of GMNN control: higher = more G2 cells, more excess DNA replication
- Rule for the call: 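Active siRNAs have a G2 robust z of 5 or more median absolute deviations over the median, which in these data means about 38% or higher of GMNN control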
Here is one part, drawn at random, of about 59,000 reagents. About 1,550 of them (2.6%) were called active. 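G2 share is only a proxy for re-replication; each gene was hit by three separate siRNAs, and active genes were retested.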 Reagents against one gene are numbered here. Further read-outs or replicates are left out here. Not given: the amount of reagent.

gene knocked down | reagent | G2 robust z-score | G2 cells, % of GMNN control | activity call
DOCK8 | 1 | -0.633 | -1.49 | inactive
DOCK8 | 2 | -0.718 | -2.08 | inactive
DOCK8 | 3 | 1.49 | 13.4 | inactive
LTV1 | 1 | 3.75 | 29.3 | inactive
LTV1 | 2 | 6.11 | 45.9 | active
LTV1 | 3 | 0.9 | 9.3 | inactive
PLD6 | 1 | -0.451 | -0.209 | inactive
PLD6 | 2 | 0.307 | 5.12 | inactive
PLD6 | 3 | -0.425 | -0.0196 | inactive
IL36B | 1 | -0.729 | -2.16 | inactive
IL36B | 2 | 0.902 | 9.31 | inactive
IL36B | 3 | -0.328 | 0.66 | inactive
PRR22 | 1 | 0.512 | 6.57 | inactive
PRR22 | 2 | -0.39 | 0.221 | inactive
PRR22 | 3 | -0.558 | -0.955 | inactive
FGL2 | 1 | 1.48 | 13.4 | inactive
FGL2 | 2 | -0.903 | -3.39 | inactive
FGL2 | 3 | 0.0903 | 3.6 | inactive
LRCH1 | 1 | -0.847 | -2.99 | inactive
LRCH1 | 2 | 1.31 | 12.2 | inactive
LRCH1 | 3 | -0.161 | 1.84 | inactive
HDAC5 | 1 | 0.349 | 5.43 | inactive
HDAC5 | 2 | 0.434 | 6.02 | inactive
HDAC5 | 3 | -0.64 | -1.54 | inactive
TTC17 | 1 | 0.992 | 9.95 | inactive
TTC17 | 2 | -0.0467 | 2.64 | inactive
TTC17 | 3 | 0.995 | 9.97 | inactive
PRPF4BP1 | 1 | -0.789 | -2.59 | inactive
PRPF4BP1 | 2 | 0.66 | 7.61 | inactive
PRPF4BP1 | 3 | 2.09 | 17.6 | inactive
FASTKD2 | 1 | -0.633 | -1.49 | inactive
FASTKD2 | 2 | 0.289 | 5 | inactive
FASTKD2 | 3 | -0.0213 | 2.82 | inactive

Records above marked active:
gene knocked down | reagent | G2 robust z-score | G2 cells, % of GMNN control | activity call
LTV1 | 2 | 6.11 | 45.9 | active

The listing continues:
gene knocked down | reagent | G2 robust z-score | G2 cells, % of GMNN control | activity call
TM7SF3 | 1 | 0.405 | 5.81 | inactive
TM7SF3 | 2 | -0.618 | -1.38 | inactive
TM7SF3 | 3 | -0.856 | -3.05 | inactive
CUL4B | 1 | 0.784 | 8.48 | inactive
CUL4B | 2 | 0.177 | 4.21 | inactive
CUL4B | 3 | -0.633 | -1.48 | inactive
EDC4 | 1 | -0.201 | 1.55 | inactive
EDC4 | 2 | 1.08 | 10.5 | inactive
EDC4 | 3 | 0.102 | 3.69 | inactive
C1GALT1C1L | 1 | 3.18 | 25.3 | inactive
C1GALT1C1L | 2 | -0.549 | -0.898 | inactive
C1GALT1C1L | 3 | 0.0671 | 3.44 | inactive
UGT1A6 | 1 | -0.139 | 1.99 | inactive
UGT1A6 | 2 | -0.59 | -1.19 | inactive
UGT1A6 | 3 | -1.3 | -6.21 | inactive
CAMK2N1 | 1 | -0.749 | -2.3 | inactive
CAMK2N1 | 2 | -0.727 | -2.15 | inactive
CAMK2N1 | 3 | -0.607 | -1.3 | inactive
KRT33B | 1 | 0.71 | 7.96 | inactive
KRT33B | 2 | 0.085 | 3.57 | inactive
KRT33B | 3 | -0.638 | -1.52 | inactive
CDH4 | 1 | -0.542 | -0.849 | inactive
CDH4 | 2 | -0.111 | 2.18 | inactive
CDH4 | 3 | -0.868 | -3.14 | inactive
MORF4 | 1 | -0.991 | -4 | inactive
MORF4 | 2 | 1.34 | 12.4 | inactive
MORF4 | 3 | 0.068 | 3.45 | inactive
CEACAM6 | 1 | 4.72 | 36.2 | inactive
CEACAM6 | 2 | -0.845 | -2.98 | inactive
CEACAM6 | 3 | 7.37 | 54.8 | active
PIAS3 | 1 | -0.511 | -0.626 | inactive
PIAS3 | 2 | -0.504 | -0.577 | inactive
PIAS3 | 3 | -0.418 | 0.028 | inactive
ZNF540 | 1 | 0.18 | 4.23 | inactive
ZNF540 | 2 | -0.518 | -0.674 | inactive
ZNF540 | 3 | 0.729 | 8.1 | inactive
